Results as given in patent US12491230B2, “Peptides for use in promoting transport of glucose” (NURITAS LIMITED, priority 2015, dated 2025).
At least one peptide structure holds a part that was inferred or is arguable (an end, a ring closure or a residue). No end group written: not given here.

Tested on: GLUT4
Assay: Measurement of GLUT4myc translocation in L6 myotubes (antibody-coupled colorimetric assay)
Assay type: cell-based, rat
Settings: synthetic peptide 200 μM, 3 hours; L6-GLUT4myc cells
Excerpt: We determined the effect of six synthetic peptides (SP1-6) and four peptide compositions on in vitro GLUT4 translocation using the L6 rat skeletal muscle cell line. A clone of the L6 cell line containing overexpression of GLUT4 tagged with a c-myc epitope (courtesy of Prof. Amira Klip, Hospital for Sick Children, Toronto) was used to investigate the efficacy of each synthetic peptide and peptide composition for effects on GLUT4 translocation in a dose-response design.
L6-GLUT4myc cells were grown in 10% FBS and 2 μg/ml blasticidin. Cells were grown for 48-72 hours before being seeded in 24-well plates at 15,000 cells per well in 2% FBS and allowed to differentiate for 6 to 8 days prior to experimentation.
L6-GLUT4myc cells were serum-starved for three hours prior to incubation with 100 nM of insulin for 30 mins, or 200, 20, 2.0 and 0.2 μM of SP, and 2, 1, 0.5 and 0.25 mg/ml of peptide composition for 3 hours respectively. […]
The quantity of myc-tagged GLUT4 at the cell surface was measured by antibody-coupled colorimetric assay. […] To determine GLUT4 translocation to cell surface, a measured aliquot of each condition was determined spectrophotometrically on a plate reader using absorbance at 492 nm. […]

DTFYNAAWDPSNR [SP1, DTFYNAAWDPSNR] was tested, and the GLUT4 translocation was “tended to decrease translocation”.
